Residue numbers refer to the chain shown, from its start. This is one part of the list. For some assays here: At the low end of the ranking the order means little. For some assays here: The exact form of the protein is not confirmed.
Key:
Conditions in all cases: yeast three-hybrid, YBZ-1, SC-Leu-His + 0.5 mM 3-AT, 4 days
[1] = molecular target: T1, PUM1 PUF domain R1-QFR R2-VFQ R7-NPG S863Q + R864F + Q867R + N899V + Y900F + S1079N + N1080P + E1083G (UniProt Q14671)
T1 sequence: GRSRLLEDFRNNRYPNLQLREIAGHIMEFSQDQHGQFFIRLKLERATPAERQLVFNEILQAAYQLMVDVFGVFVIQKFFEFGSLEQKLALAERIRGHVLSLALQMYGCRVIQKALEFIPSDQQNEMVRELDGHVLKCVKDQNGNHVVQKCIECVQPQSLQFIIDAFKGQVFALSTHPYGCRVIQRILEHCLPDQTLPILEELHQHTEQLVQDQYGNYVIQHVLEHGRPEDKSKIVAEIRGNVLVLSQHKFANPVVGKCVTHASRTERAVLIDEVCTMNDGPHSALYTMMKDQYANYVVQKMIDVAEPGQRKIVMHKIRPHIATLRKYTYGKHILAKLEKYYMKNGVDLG

[2] = molecular target: T2, PUM1 PUF domain R2-VFQ R3-THE R4-TFR N899V + Y900F + C935T + R936H + Q939E + N971T + H972F + Q975R (UniProt Q14671)
T2 sequence: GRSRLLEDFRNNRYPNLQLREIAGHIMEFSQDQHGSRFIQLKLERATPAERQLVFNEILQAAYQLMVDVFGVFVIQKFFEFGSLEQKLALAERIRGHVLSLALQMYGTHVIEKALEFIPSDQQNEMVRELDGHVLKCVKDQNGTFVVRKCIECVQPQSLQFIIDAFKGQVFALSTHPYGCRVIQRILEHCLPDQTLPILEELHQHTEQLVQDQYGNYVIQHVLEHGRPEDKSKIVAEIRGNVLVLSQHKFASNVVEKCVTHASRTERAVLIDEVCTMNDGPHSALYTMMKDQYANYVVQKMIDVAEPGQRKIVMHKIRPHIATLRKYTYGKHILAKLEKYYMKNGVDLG

[3] = molecular target: T3, PUM1 PUF domain R3-THE R4-TFR C935T + R936H + Q939E + N971T + H972F + Q975R (UniProt Q14671)
T3 sequence: T2 sequence with V72N, F73Y

[4] = molecular target: T4, PUM1 PUF domain R5-PHQ R6-SWD C1007P + R1008H + N1043S + Y1044W + Q1047D (UniProt Q14671)
T4 sequence: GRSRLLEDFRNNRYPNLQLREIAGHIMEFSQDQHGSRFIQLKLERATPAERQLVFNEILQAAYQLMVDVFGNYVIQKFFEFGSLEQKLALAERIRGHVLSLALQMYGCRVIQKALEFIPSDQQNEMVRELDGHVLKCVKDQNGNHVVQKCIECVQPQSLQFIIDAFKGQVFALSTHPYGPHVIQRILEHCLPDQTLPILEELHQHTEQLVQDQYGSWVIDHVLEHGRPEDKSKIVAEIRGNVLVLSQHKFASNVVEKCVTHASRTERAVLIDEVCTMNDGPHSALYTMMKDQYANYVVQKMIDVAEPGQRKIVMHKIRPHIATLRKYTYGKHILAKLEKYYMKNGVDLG

[5] = molecular target: T5, PUM1 PUF domain R3-THE R4-TFR R7-NPG C935T + R936H + Q939E + N971T + H972F + Q975R + S1079N + N1080P + E1083G (Homo sapiens) (UniProt Q14671)
T5 sequence: T2 sequence with V72N, F73Y, S252N, N253P, E256G

[6] = molecular target: T6, PUM1 PUF domain R6-SWD R7-NPG N1043S + Y1044W + Q1047D + S1079N + N1080P + E1083G (Homo sapiens) (UniProt Q14671)
T6 sequence: T4 sequence with P180C, H181R, S252N, N253P, E256G

[7] = molecular target: T7, PUM1 PUF domain R6-SWD R7-NPG N1043S + Y1044W + Q1047D + S1079N + N1080P + E1083G (UniProt Q14671)
T7 sequence: T4 sequence with P180C, H181R, S252N, N253P, E256G

| Sequence | binding signal (log2 enrichment (interaction score)) [1] | binding signal (log2 enrichment (interaction score)) [2] | binding signal (log2 enrichment (interaction score)) [3] | binding signal (log2 enrichment (interaction score)) [4] | binding signal (log2 enrichment (interaction score)) [5] | binding signal (log2 enrichment (interaction score)) [6] | binding signal (log2 enrichment (interaction score)) [7] |
| --- | --- | --- | --- | --- | --- | --- | --- |
| GGCUAGAACUAGUGGAUCCCCCGGCGCCCGGCGGCUCGAGCCCGGGUAAGUGUAAGAUGUCUGCAUGCCGCCGGGCGCCAUGCCUGCAGGUCGACUCUAGAAAACAUG | -6.23 | -5.18 | -8.07 | < -7.12 |  |  |  |
| GGCUAGAACUAGUGGAUCCCCCGGCGCCCGGCGGCUCGAGCCCGGGUAAGUUUAAGAGGUCUGCAUGCCGCCGGGCGCCAUGCCUGCAGGUCGACUCUAGAAAACAUG | -6.77 | -6.5 |  |  | -1.6 |  |  |
| GGCUAGAACUAGUGGAUCCCCCGGCGCCCGGCGGCUCGAGCCCGGGUAAGUGGAAGUCGUCUGCAUGCCGCCGGGCGCCAUGCCUGCAGGUCGACUCUAGAAAACAUG | -6.08 | -5.41 | -5.99 | < -7.47 |  | -0.71 |  |
| GGCUAGAACUAGUGGAUCCCCCGGCGCCCGGCGGCUCGAGCCCGGGUAAGUGGACGUUGUCUGCAUGCCGCCGGGCGCCAUGCCUGCAGGUCGACUCUAGAAAACAUG | -6.38 | -4.94 | -7.96 | -8.4 |  |  |  |
| GGCUAGAACUAGUGGAUCCCCCGGCGCCCGGCGGCUCGAGCCCGGGUAAGUGGAACUAGUCUGCAUGCCGCCGGGCGCCAUGCCUGCAGGUCGACUCUAGAAAACAUG | -6.15 | -5.24 | -6.29 | -7.48 |  | -1.16 |  |
| GGCUAGAACUAGUGGAUCCCCCGGCGCCCGGCGGCUCGAGCCCGGGUAAGUUCAAGUAGUCUGCAUGCCGCCGGGCGCCAUGCCUGCAGGUCGACUCUAGAAAACAUG | -6.3 | -6.1 | -7.32 | -7.79 |  | -1.51 |  |
| GGCUAGAACUAGUGGAUCCCCCGGCGCCCGGCGGCUCGAGCCCGGGUAAGAGGAAGAAGUCUGCAUGCCGCCGGGCGCCAUGCCUGCAGGUCGACUCUAGAAAACAUG | -6.23 | -5.31 | -4.05 | < -7.54 |  | -1.63 |  |
| GGCUAGAACUAGUGGAUCCCCCGGCGCCCGGCGGCUCGAGCCCGGGUAAGUGUAAGACGUCUGCAUGCCGCCGGGCGCCAUGCCUGCAGGUCGACUCUAGAAAACAUG | -5.22 | -5.22 | -7.52 | -9.51 |  | -1.53 |  |
| GGCUAGAACUAGUGGAUCCCCCGGCGCCCGGCGGCUCGAGCCCGGGUAAGUGGACGCAGUCUGCAUGCCGCCGGGCGCCAUGCCUGCAGGUCGACUCUAGAAAACAUG | -6.85 | -5.34 | -7.28 | -8.78 |  | -0.57 |  |
| GGCUAGAACUAGUGGAUCCCCCGGCGCCCGGCGGCUCGAGCCCGGGUAAGCGUAAAUCGUCUGCAUGCCGCCGGGCGCCAUGCCUGCAGGUCGACUCUAGAAAACAUG | < -5.55 | -5.27 | -6.57 | -7.48 |  |  |  |
| GGCUAGAACUAGUGGAUCCCCCGGCGCCCGGCGGCUCGAGCCCGGGUAAGUGUAAGUUGUCUGCAUGCCGCCGGGCGCCAUGCCUGCAGGUCGACUCUAGAAAACAUG | -5.24 | -6.05 | < -8.05 |  |  |  | < -2.45 |
| GGCUAGAACUAGUGGAUCCCCCGGCGCCCGGCGGCUCGAGCCCGGGUAAGUUUACAUAGUCUGCAUGCCGCCGGGCGCCAUGCCUGCAGGUCGACUCUAGAAAACAUG | < -6.42 | -5.65 | -7.38 | < -7.31 |  | -1.5 |  |
| GGCUAGAACUAGUGGAUCCCCCGGCGCCCGGCGGCUCGAGCCCGGGUAAGUUUAAAUCGUCUGCAUGCCGCCGGGCGCCAUGCCUGCAGGUCGACUCUAGAAAACAUG | -4.47 | -5.25 | -6.96 | -7.32 |  | -0.72 |  |
| GGCUAGAACUAGUGGAUCCCCCGGCGCCCGGCGGCUCGAGCCCGGGUAAGCGGAAGAAGUCUGCAUGCCGCCGGGCGCCAUGCCUGCAGGUCGACUCUAGAAAACAUG | < -5.62 | -5.32 | < -6.14 | < -8.31 |  |  |  |
| GGCUAGAACUAGUGGAUCCCCCGGCGCCCGGCGGCUCGAGCCCGGGUAAGUGUAGAUUGUCUGCAUGCCGCCGGGCGCCAUGCCUGCAGGUCGACUCUAGAAAACAUG | -5.14 | -5.47 | -6.93 | < -7.14 |  |  |  |
| GGCUAGAACUAGUGGAUCCCCCGGCGCCCGGCGGCUCGAGCCCGGGUAAGAGGAGGUAGUCUGCAUGCCGCCGGGCGCCAUGCCUGCAGGUCGACUCUAGAAAACAUG | -5.53 | -5.25 | -7.23 | -7.55 |  |  |  |
| GGCUAGAACUAGUGGAUCCCCCGGCGCCCGGCGGCUCGAGCCCGGGUAAGUUAACAUAGUCUGCAUGCCGCCGGGCGCCAUGCCUGCAGGUCGACUCUAGAAAACAUG | < -7.26 | -6.01 | -8.86 | -8.2 |  |  | -2.18 |
| GGCUAGAACUAGUGGAUCCCCCGGCGCCCGGCGGCUCGAGCCCGGGUAAGUAGAAGUUGUCUGCAUGCCGCCGGGCGCCAUGCCUGCAGGUCGACUCUAGAAAACAUG | -5.89 | -5.4 | -7.22 | -7.92 |  |  |  |
| GGCUAGAACUAGUGGAUCCCCCGGCGCCCGGCGGCUCGAGCCCGGGUAAGUCGAAGCGGUCUGCAUGCCGCCGGGCGCCAUGCCUGCAGGUCGACUCUAGAAAACAUG | < -6.47 | -5.81 | -6.56 | < -6.6 |  |  |  |
| GGCUAGAACUAGUGGAUCCCCCGGCGCCCGGCGGCUCGAGCCCGGGUAAGUUGACAUAGUCUGCAUGCCGCCGGGCGCCAUGCCUGCAGGUCGACUCUAGAAAACAUG | -5.79 | -5.34 | -7.31 | -8.14 |  | -1.13 |  |

An excerpt from above, reduced to binding signal (log2 enrichment (interaction score)) [6], binding signal (log2 enrichment (interaction score)) [1] and binding signal (log2 enrichment (interaction score)) [4]:
Sequence,binding signal (log2 enrichment (interaction score)) [6],binding signal (log2 enrichment (interaction score)) [1],binding signal (log2 enrichment (interaction score)) [4]
GGCUAGAACUAGUGGAUCCCCCGGCGCCCGGCGGCUCGAGCCCGGGUAAGUGGAACUAGUCUGCAUGCCGCCGGGCGCCAUGCCUGCAGGUCGACUCUAGAAAACAUG,-1.16,-6.15,-7.48
GGCUAGAACUAGUGGAUCCCCCGGCGCCCGGCGGCUCGAGCCCGGGUAAGUUCAAGUAGUCUGCAUGCCGCCGGGCGCCAUGCCUGCAGGUCGACUCUAGAAAACAUG,-1.51,-6.3,-7.79
